# Experimental data reported in PMC6861005.
# Amino acid sequences for entries named in this document (tags omitted).
# UniProt P99999: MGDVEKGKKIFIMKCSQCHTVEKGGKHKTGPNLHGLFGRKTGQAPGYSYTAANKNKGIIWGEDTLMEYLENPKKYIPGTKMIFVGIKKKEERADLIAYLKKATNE
# No constants are given. Whether binding was seen depends on the method and setting. Binding seen in cells or lysates may run through a third protein. These calls come from enrichment with a bait or labelling near it, and not all partners need be listed. Where a sequence is shown, tags or fusion partners need not be part of it.
# T1: hTim8a^FLAG (human) (UniProt O60220)
# T1 sequence: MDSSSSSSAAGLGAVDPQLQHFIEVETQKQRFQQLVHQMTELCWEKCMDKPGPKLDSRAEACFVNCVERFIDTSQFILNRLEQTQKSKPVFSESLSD
# B1: hTim8b (protein, UniProt Q9Y5J9 1-83)
# chain: MAELGEADEAELQRLVAAEQQKAQFTAQVHHFMELCWDKCVEKPGNRLDSRTENCLSSCVDRFIDTTLAITSRFAQIVQKGGQ
# B2: hTim13 (protein, UniProt Q9Y5L4 1-95)
# chain: MEGGFGSDFGGSGSGKLDPGLIMEQVKVQIAVANAQELLQRMTDKCFRKCIGKPGGSLDNSEQKCIAMCMDRYMDAWNTVSRAYNSRLQRERANM
# B3: COA7 (protein, UniProt Q96BR5 1-231)
# chain: MAGMVDFQDEEQVKSFLENMEVECNYHCYHEKDPDGCYRLVDYLEGIRKNFDEAAKVLKFNCEENQHSDSCYKLGAYYVTGKGGLTQDLKAAARCFLMACEKPGKKSIAACHNVGLLAHDGQVNEDGQPDLGKARDYYTRACDGGYTSSCFNLSAMFLQGAPGFPKDMDLACKYSMKACDLGHIWACANASRMYKLGDGVDKDEAKAEVLKNRAQQLHKEQQKGVQPLTFG
# B4: COA6 (protein, UniProt Q5JTJ3 1-125)
# chain: MGPGGPLLSPSRGFLLCKTGWHSNRLLGDCGPHTPVSTALSFIAVGMAAPSMKERQVCWGARDEYWKCLDENLEDASQCKKLRSSFESSCPQQWIKYFDKRRDYLKFKEKFEAGQFEPSETTAKS
# Biological target: T1, hTim8a^FLAG (human)
# Assay: cross-linking + affinity purification with mass spectrometry; hTim8a^FLAG and control SH-SY5Y cells grown in glucose media or shifted to galactose media for 6 hr; isolated mitochondria cross-linked with DSP, FLAG immunoprecipitation, elution with 0.2 M glycine pH 2.0, label-free quantitative mass spectrometry, n = 3
row,Molecule,binding
1,cytochrome c (from UniProt P99999 1-105),binds
2,OPA1 (human (endogenous in SH-SY5Y)),binds
3,B1,binds
4,B2,binds
5,B3,binds
6,B4,binds
